PubChem BioAssay AID1259254 | NCATS – 2017

- Screen: 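Gene knock-downs that lead to re-replication, shown by excess G2 DNA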 (primary screen)
- Cell system: human HCT116 colorectal cancer cells
- Knock-down reagent: single siRNA against human genes
- Timing: 3 days
- Measurement: 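Imaged Hoechst DNA stain sorts each cell into a cycle phase by DNA amount; per plate, G2 fraction set to 0% for non-targeting and 100% for GMNN siRNA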
- Direction: G2 robust z-score and G2 cells, % of GMNN control: higher = more G2 cells, more excess DNA replication
- Rule for the call: 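An siRNA counts as active if its G2 robust z-score lies at least 5 MADs above the screen median; here such calls match roughly 38% of GMNN control or more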
The whole screen tested about 59,000 reagents; this is a random part of them. Of all reagents, about 1,550 (2.6%) were called active. 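G2 share is only a proxy for re-replication; each gene was hit by three separate siRNAs, and active genes were retested.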 The numbers tell different reagents against one gene apart. Not all columns of the deposit are shown. Reagent sequences are not shown. Not stated in the record: the amount of reagent.

How did the screen score NALF1 #1?
G2 robust z-score: 0.349; G2 cells, % of GMNN control: 5.42; Call: inactive

Which result is listed for NALF1 #2?
G2 robust z-score: -0.326; G2 cells, % of GMNN control: 0.672; Call: inactive

What is on record for NALF1 #3?
G2 robust z-score: -0.885; G2 cells, % of GMNN control: -3.26; Call: inactive

What is on record for GABRB2 #1?
G2 robust z-score: 3.4; G2 cells, % of GMNN control: 26.9; Call: inactive

For GABRB2 #2, what does the deposit list?
G2 robust z-score: -0.376; G2 cells, % of GMNN control: 0.321; Call: inactive

For GABRB2 #3, what was measured?
G2 robust z-score: 0.585; G2 cells, % of GMNN control: 7.09; Call: inactive

With GSTCD #1, what was measured?
G2 robust z-score: 0.272; G2 cells, % of GMNN control: 4.88; Call: inactive

With GSTCD #2, what was measured?
G2 robust z-score: 1.19; G2 cells, % of GMNN control: 11.4; Call: inactive

For GSTCD #3, what was measured?
G2 robust z-score: 3.62; G2 cells, % of GMNN control: 28.5; Call: inactive

With PAPPA2 #1, what does the deposit list?
G2 robust z-score: 0.135; G2 cells, % of GMNN control: 3.92; Call: inactive

What did the screen give for PAPPA2 #2?
G2 robust z-score: -0.369; G2 cells, % of GMNN control: 0.374; Call: inactive

For PAPPA2 #3, what does the deposit list?
G2 robust z-score: 1.37; G2 cells, % of GMNN control: 12.6; Call: inactive

In a second layout: 2 of the entries above.
{"Target gene":"GABRB2","reagent":3,"G2 robust z-score":0.585,"G2 cells, % of GMNN control":7.09,"Call":"inactive"}
{"Target gene":"GSTCD","reagent":1,"G2 robust z-score":0.272,"G2 cells, % of GMNN control":4.88,"Call":"inactive"}

The listing continues.
For TMCC1 #1, what was measured?
G2 robust z-score: 0.75; G2 cells, % of GMNN control: 8.25; Call: inactive

What is on record for TMCC1 #2?
G2 robust z-score: 0.432; G2 cells, % of GMNN control: 6.01; Call: inactive

What is on record for TMCC1 #3?
G2 robust z-score: 1.79; G2 cells, % of GMNN control: 15.6; Call: inactive

How did the screen score SIDT2 #1?
G2 robust z-score: 1.3; G2 cells, % of GMNN control: 12.1; Call: inactive

With SIDT2 #2, how do the results read?
G2 robust z-score: -1.21; G2 cells, % of GMNN control: -5.57; Call: inactive

With SIDT2 #3, how do the results read?
G2 robust z-score: 3.39; G2 cells, % of GMNN control: 26.8; Call: inactive

Which result is listed for PHC3 #1?
G2 robust z-score: -1.04; G2 cells, % of GMNN control: -4.32; Call: inactive

What is on record for PHC3 #2?
G2 robust z-score: -0.518; G2 cells, % of GMNN control: -0.678; Call: inactive

What did the screen give for PHC3 #3?
G2 robust z-score: -0.0427; G2 cells, % of GMNN control: 2.67; Call: inactive

For PTCHD4 #1, what was measured?
G2 robust z-score: -0.36; G2 cells, % of GMNN control: 0.432; Call: inactive

For PTCHD4 #2, what was measured?
G2 robust z-score: 0.407; G2 cells, % of GMNN control: 5.83; Call: inactive

With PTCHD4 #3, what was measured?
G2 robust z-score: -0.484; G2 cells, % of GMNN control: -0.441; Call: inactive
